Read-outs that look alike come from different tables or passages of the source.
Legend:
[1] = Blockade of pentylenetetrazole induced clonic convulsions, intragastric
Experimental: Exp. Ther., 108, 168 (1953)]. […] Both test compounds were administered intragastrically at specific time periods prior to the pentylenetetrazole challenge, and the ED50 for blockade of clonic convulsions was determined for each time period. Duration of activity is inferred from increases in the ED50 with time.

[2] = Potentiation of a sub-hypnotic dose of pentobarbital sodium (loss of righting reflex); conditions: intragastric, two hour period
Description: In this procedure an ED50 for loss of righting reflex was established.

[3] = Rotarod test (muscle relaxant); type: in vivo, mice; conditions: intragastric; for ED50: Mus musculus, po, read-out: Rotarod ED50 (95% confidence limits)
Experimental: Using this procedure [after Dunham, N.W. and T.S. Miya, J. Amer. Pharm. […] The compounds were administered intragastrically to mice at varying time periods before being placed on the horizontal rotating (4.4 rpm) rod. Different groups of mice were assigned to each time period so that a subject was tested only once. A testing trial consisted of two opportunities to stay on the rod for one minute. ED50 's were calculated for each time period.

Structure (SMILES): CN1C(=O)CN=C(c2ccccc2)c2cc(Cl)ccc21 [Diazepam, diazepam, reference compound]
- stability of ED50 over 2 hours [1]: remained stable for 2 hours
- stability of ED50 for potentiating pentobarbital sodium [2]: remained fairly stable
- ED50 ([3]; 0.08 h, .08 hours): 6 mg/kg
- ED50 ([3]; 0.25 h, .25 hours): 3.2 mg/kg
- ED50 ([3]; 1.0 hours): 5.7 mg/kg
- ED50 ([3]; 2.0 hours): 7.7 mg/kg
- increase of rotarod ED50 from 15 minutes to 2 hours [3]: about 2.5 times
- time to peak effect (rotarod) [3]: 15 min

From patent publication US4208327A, “5-Aryl-1-(2-oxazolin-2-yl)-1H-1,4-benzodiazepines and related compounds” (G. D. Searle & Co., priority 1979, dated 1980)
